{
  "source": "patent US11773108B2",
  "about": "“Indene derivatives useful in treating pain and inflammation” (TARO PHARMACEUTICALS INC., priority 2018, dated 2023)",
  "system": "Mice (male, C57BL/6)",
  "assay": "Formalin pain assay in mice",
  "assay_type": "in vivo, mouse",
  "details": "standard compound, 2.5% formalin in left hind paw",
  "description": "Mice (male, C57BL/6) were placed singly in a Perspex chamber for approximately 30 min on three successive days to acclimate and thereby reduce stress-induced behaviors. On the fourth day, the experimental animals received a 25 μl injection of 2.5% formalin beneath the left plantar skin using a 29-gauge syringe. […] The total time spent on flinches/licking/biting of the hind paw was recorded by visual observation for every 5 min period/interval for total observation duration of 60 min in two phases, the early phase (0-5 min) and the late phase (15-40 min). Observers were blinded to the treatment group allocation.\nFor test compounds, % protection from 0-60 min was used to assess activity. Scoring for the test compounds was as follows: “A” represents a % protection of 81 to 100%, “B” represents a % protection of 61 to 80%, “C” represents a % protection of 31 to 60% and “D” represents a % protection of 0 to 30%.",
  "data": [
    {"smiles": "COc1cccc(C2(O)CCCCC2CN(C)C)c1", "note": "(stereo not shown) [tramadol, reference compound]", "values": [
      {"measurement": "Average AUC % Inhibition", "value": 59, "unit": "%"}
    ]}
  ]
}
